Assay results: patent US20260085103A1 (CHENGDU AODA BIOTECHNOLOGY CO., LTD, priority 2022, published 2026)

Test: general procedure: Fmoc solid-phase peptide synthesis; Rink amide MBHA resin (substitution about 0.3 mmol/g)
Conditions: whole synthesis, acetate; for final HPLC purity: analytical liquid phase (HPLC); for final HPLC purity / isolated yield: scale of the general procedure 0.01 mmol; for isolated yield: total yield

Substance | isolated mass | final HPLC purity | isolated yield
Phe-Val-Asn-Gln-His-Leu-Cys-Gly-Ser-His-Leu-Val-Glu-Ala-Leu-Glu-Leu-Val-Dap-Gly-Glu-Arg-Gly-Phe-His-Tyr-Thr-Pro-Lys(PEG5CH2CO-γGlu-eicosandioic acid)-NH2 | 3.5 g | 98.8% | 5.5%
Phe-Val-Asn-Gln-His-Leu-Cys-Gly-Ser-His-Leu-Val-Glu-Ala-Leu-Glu-Leu-Val-Cys-Gly-Glu-Arg-Gly-Phe-His-Tyr-Thr-Pro-Lys(PEG5CH2CO-γGlu-eicosandioic acid)-NH2 | 3.9 g | 97.7% | 6.1%
Phe-Val-Asn-Gln-His-Leu-Cys-Gly-Ser-His-Leu-Val-Glu-Ala-Leu-Glu-Leu-Val-Cys-Gly-Glu-Arg-Gly-Phe-His-Tyr-Thr-Pro-Lys-Thr-Lys(PEG5CH2CO-γGlu-eicosandioic acid)-NH2 | – | 98.5% | 7.1%
